# According to publication PMC10938740:
# By UniProt entry, the sequences of proteins in these tests, tags left out.
# UniProt Q16531: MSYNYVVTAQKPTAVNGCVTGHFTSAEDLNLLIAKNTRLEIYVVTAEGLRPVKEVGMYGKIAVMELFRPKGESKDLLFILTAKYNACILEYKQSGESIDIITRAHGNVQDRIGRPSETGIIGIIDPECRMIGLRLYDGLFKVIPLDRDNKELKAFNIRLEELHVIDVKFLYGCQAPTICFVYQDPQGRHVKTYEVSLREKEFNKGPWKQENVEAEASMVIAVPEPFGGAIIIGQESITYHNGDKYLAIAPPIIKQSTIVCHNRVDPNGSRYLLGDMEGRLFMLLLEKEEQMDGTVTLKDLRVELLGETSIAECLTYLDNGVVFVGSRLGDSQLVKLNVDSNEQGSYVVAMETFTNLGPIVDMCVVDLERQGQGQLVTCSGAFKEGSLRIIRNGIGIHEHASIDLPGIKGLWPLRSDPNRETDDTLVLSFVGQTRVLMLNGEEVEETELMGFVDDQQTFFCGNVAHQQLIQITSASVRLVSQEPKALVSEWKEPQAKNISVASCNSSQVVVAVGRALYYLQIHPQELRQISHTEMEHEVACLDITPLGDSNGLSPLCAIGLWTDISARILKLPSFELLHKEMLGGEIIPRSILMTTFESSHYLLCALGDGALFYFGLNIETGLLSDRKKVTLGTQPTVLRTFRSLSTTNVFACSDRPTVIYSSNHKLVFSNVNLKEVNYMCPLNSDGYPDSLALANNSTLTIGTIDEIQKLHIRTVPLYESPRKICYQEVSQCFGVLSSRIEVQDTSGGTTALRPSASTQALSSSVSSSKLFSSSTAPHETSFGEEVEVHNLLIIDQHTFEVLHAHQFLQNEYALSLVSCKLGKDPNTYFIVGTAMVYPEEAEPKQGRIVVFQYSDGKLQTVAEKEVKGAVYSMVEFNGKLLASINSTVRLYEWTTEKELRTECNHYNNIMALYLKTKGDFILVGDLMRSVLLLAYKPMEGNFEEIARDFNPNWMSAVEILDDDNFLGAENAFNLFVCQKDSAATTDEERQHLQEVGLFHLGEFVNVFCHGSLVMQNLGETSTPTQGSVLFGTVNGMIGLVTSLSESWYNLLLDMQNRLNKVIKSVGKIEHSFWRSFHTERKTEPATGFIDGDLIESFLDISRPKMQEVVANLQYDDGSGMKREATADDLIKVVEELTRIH
# UniProt P52701: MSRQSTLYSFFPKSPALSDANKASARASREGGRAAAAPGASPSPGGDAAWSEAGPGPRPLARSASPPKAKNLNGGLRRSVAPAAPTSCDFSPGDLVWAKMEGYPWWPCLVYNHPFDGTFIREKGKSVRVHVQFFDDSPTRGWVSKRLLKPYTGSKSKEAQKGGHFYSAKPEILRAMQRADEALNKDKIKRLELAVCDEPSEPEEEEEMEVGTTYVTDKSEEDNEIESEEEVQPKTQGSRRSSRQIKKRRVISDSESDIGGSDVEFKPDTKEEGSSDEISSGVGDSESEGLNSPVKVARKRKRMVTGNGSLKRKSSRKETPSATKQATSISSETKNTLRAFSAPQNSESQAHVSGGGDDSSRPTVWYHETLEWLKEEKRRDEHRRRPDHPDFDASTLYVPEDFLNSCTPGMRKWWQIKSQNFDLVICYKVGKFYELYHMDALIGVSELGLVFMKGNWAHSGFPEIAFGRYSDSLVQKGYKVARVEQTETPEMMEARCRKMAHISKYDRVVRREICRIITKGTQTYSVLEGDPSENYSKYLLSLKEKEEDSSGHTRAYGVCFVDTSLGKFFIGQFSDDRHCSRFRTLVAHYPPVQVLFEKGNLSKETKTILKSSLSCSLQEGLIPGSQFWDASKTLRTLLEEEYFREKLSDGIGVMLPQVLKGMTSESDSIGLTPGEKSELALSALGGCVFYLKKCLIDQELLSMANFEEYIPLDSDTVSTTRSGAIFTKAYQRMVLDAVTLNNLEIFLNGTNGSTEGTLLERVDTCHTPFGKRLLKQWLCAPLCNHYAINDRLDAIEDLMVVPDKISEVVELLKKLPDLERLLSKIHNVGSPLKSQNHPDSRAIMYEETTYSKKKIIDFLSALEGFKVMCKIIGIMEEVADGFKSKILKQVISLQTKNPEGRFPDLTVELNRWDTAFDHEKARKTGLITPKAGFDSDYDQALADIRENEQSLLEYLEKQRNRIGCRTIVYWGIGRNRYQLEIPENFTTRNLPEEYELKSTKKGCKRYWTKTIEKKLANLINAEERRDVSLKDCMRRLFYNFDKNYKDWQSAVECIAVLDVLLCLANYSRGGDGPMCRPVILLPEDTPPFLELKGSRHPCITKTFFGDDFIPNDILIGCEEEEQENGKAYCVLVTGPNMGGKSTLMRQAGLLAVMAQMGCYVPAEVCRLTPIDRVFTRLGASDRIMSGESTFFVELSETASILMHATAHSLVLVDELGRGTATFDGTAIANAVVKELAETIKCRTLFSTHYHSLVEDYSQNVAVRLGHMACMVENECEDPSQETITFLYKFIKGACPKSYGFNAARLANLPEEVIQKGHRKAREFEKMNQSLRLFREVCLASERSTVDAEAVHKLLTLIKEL
# UniProt P54727: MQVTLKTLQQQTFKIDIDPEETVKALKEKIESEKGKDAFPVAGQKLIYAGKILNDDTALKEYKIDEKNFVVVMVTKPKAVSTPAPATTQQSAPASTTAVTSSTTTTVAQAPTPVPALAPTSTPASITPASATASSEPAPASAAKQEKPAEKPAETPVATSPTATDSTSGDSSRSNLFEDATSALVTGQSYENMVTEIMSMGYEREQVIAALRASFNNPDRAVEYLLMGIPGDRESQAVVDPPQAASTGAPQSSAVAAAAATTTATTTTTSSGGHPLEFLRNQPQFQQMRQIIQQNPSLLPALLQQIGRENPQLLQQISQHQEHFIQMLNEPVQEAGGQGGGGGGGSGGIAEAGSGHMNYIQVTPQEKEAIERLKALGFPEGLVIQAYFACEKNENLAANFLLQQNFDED
# UniProt Q92878: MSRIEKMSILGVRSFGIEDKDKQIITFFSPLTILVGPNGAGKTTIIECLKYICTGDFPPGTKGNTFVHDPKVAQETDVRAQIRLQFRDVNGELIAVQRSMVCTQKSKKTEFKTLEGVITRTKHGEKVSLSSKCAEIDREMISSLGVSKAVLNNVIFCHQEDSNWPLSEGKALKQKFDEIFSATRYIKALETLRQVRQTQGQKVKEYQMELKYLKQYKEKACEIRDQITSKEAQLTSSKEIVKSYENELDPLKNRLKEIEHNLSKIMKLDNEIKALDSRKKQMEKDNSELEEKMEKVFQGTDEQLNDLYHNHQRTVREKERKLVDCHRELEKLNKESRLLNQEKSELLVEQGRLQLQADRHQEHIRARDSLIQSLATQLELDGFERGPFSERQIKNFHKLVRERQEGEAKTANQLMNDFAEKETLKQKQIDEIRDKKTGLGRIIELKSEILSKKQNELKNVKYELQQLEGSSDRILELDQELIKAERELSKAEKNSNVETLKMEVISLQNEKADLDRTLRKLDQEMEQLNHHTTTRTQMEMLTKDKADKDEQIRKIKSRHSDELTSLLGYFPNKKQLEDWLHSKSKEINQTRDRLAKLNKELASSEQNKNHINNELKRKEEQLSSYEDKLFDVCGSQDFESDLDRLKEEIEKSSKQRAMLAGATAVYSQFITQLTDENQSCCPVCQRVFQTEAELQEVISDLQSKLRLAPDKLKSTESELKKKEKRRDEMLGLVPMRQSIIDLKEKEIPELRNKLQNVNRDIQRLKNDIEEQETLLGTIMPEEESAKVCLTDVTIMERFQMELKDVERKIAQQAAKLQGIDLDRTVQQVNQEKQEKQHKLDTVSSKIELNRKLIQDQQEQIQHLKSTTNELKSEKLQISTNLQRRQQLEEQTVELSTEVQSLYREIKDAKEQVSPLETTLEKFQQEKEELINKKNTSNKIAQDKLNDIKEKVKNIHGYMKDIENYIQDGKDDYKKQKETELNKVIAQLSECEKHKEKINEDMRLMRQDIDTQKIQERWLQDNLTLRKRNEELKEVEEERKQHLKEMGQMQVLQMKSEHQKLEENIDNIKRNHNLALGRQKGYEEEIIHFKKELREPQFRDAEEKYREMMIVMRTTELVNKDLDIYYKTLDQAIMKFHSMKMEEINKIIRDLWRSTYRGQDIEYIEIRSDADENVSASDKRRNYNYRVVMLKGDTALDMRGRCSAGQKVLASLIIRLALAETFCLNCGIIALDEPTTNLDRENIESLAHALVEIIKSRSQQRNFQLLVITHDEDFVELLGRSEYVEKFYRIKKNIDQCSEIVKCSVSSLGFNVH
# UniProt Q12888: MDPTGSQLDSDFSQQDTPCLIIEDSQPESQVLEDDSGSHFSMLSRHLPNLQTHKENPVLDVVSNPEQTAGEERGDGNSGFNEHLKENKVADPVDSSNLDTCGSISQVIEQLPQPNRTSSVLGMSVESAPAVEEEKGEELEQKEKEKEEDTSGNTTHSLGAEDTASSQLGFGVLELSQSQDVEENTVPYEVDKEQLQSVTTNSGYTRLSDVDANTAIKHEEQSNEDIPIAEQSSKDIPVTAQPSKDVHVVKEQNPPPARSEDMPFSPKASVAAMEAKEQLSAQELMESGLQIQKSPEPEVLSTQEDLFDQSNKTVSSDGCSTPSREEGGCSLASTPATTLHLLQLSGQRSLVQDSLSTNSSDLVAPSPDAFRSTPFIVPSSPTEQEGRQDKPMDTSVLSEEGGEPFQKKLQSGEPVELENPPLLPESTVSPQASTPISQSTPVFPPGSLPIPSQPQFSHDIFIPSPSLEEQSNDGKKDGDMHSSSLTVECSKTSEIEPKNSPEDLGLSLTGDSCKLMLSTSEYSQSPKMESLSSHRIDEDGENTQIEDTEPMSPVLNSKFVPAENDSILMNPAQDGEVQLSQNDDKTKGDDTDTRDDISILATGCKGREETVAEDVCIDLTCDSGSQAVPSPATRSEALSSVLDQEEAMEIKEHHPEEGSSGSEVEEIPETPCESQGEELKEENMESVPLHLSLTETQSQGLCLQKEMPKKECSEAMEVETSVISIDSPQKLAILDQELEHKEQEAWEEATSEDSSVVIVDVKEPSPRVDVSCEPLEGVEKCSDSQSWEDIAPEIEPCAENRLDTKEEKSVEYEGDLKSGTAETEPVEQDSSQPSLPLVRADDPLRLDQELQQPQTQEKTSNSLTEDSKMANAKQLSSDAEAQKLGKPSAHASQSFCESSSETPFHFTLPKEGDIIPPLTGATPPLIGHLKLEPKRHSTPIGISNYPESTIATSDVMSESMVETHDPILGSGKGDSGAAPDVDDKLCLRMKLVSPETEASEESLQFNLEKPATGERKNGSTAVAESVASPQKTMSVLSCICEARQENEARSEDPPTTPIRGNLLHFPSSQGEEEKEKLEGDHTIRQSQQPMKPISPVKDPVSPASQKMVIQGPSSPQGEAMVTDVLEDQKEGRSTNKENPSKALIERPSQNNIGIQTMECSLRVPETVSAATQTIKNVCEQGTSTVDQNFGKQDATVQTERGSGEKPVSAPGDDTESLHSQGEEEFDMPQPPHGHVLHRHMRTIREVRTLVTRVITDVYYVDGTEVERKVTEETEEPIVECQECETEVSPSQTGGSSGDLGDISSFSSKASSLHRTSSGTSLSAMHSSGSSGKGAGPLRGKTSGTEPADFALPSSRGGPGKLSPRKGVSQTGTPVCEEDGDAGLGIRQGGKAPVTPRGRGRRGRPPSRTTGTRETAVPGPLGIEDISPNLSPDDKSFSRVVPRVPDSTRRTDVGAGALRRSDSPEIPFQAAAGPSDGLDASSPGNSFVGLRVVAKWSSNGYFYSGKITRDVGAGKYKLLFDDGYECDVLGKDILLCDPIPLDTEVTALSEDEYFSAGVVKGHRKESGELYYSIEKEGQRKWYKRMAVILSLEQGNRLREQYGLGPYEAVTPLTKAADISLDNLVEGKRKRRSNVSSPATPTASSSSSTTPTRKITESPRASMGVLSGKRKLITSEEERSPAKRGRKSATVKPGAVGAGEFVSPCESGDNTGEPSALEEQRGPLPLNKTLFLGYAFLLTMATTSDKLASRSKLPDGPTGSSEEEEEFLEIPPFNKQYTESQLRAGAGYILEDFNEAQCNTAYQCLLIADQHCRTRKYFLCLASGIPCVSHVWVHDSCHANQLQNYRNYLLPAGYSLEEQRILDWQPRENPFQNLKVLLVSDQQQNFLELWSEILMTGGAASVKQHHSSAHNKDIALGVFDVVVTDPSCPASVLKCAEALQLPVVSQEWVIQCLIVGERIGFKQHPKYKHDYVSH
# Target: T1, TRIM29, endogenous in RWPE-1 (human (endogenous in RWPE-1)) (UniProt Q14134)
# T1 sequence: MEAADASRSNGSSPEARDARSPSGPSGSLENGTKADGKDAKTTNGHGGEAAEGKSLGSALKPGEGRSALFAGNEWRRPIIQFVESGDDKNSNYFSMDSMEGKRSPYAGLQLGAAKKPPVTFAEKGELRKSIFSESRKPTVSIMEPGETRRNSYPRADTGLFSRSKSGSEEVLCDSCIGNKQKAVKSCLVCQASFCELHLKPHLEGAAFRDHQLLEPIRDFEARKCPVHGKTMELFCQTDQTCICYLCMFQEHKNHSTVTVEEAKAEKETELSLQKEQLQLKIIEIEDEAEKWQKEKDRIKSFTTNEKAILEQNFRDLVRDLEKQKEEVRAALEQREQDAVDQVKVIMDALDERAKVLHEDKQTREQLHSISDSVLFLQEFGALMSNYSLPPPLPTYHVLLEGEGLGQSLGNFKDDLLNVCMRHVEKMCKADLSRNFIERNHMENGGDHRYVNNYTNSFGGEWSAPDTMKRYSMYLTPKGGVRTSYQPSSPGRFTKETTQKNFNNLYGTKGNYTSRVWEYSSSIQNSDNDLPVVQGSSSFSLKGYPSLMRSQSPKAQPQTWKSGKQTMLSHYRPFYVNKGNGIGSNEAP
# Test: affinity purification with mass spectrometry; immunoprecipitation of endogenous TRIM29 from the nuclear fraction of RWPE-1, IgG control, LC-MS/MS of the precipitate
row,binding,Substance
1,binds,CHAF1A (from UniProt Q13111 1-956)
2,binds,DDB1 (from UniProt Q16531 1-1140)
3,binds,MSH6 (from UniProt P52701 1-1360)
4,binds,RAD23B (from UniProt P54727 1-409)
5,binds,RAD50 (from UniProt Q92878 1-1312)
6,binds,TP53BP1 (from UniProt Q12888 1-1972)

# Results are given in words; binding and its absence hold for the method and conditions named. In cells and extracts the contact can be indirect. A yes stands for co-enrichment or nearness to the bait. Other partners may have been found.
